# Results of single-concentration screens

Each number is a percent effect as filed. The record does not define 0% and 100%; most values in the screen are far below 50% and negative numbers occur (in some assays of this library far below -100). The compounds are a random part of those screened. Two or more numbers in one place are separate tests of the same structure; such repeats can differ widely.

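Whole-cell growth test on Mycobacterium tuberculosis, read after 3 days in glucose-containing 7H9 medium; the read-out is not stated. Tested at 50 µM. Direction is inferred from retests: higher values go with more growth inhibition. Of about 69,000 compounds tested this way, about 760 (1.1%) reached 50% or more in at least one test.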

| # | Compound | effect |
|---|---|---|
| 1 | `CCOCCOC(C)C(=O)NCc1ccc(N2CCCCC2)cc1` (stereo unspecified) | -11.74 |
| 2 | `CC(C)CCN(C(=O)c1ccc(-n2ncc(C#N)c2N)cc1)C1CC1` | 21.79 |
| 3 | `Cc1cc(C(=O)N(C)Cc2cccs2)nc(N2CCCC2)n1` | 30.72 |
| 4 | `Cc1cnn(C2CN(CC(O)COc3ccc(C#N)cc3)C2)c1` (stereo unspecified) | 37.02 |
| 5 | `COc1cc2[nH]c(=O)c(CN3CCC[C@@H]3C(N)=O)cc2c(OC)c1OC` | -21.84 |
| 6 | `COC1CCCN(C(=O)NCC(F)F)C1` (stereo unspecified) | 2.342 |
| 7 | `Cc1cc(CN2CCCC(CNC(=O)Cn3cccn3)C2)oc1C` (stereo unspecified) | -16.84 and -7.755 |
| 8 | `Cc1cccc(CN2CCN(c3ncnc4[nH]ccc34)CC2CCO)n1` (stereo unspecified) | 30.39 |
| 9 | `CC(C(=O)N1CCCN(Cc2ccc(C#N)cc2)CC1)n1ccnc1` (stereo unspecified) | -10.63 |
| 10 | `COCCC(=O)N1CCC(C(=O)c2cc(C)cnc2N)CC1` | 11.53 |
| 11 | `COC(=O)C1CN(CC(=O)Nc2cccc(OC)c2)c2ccccc21` (stereo unspecified) | -10.79 |
| 12 | `Cc1ccc(CN2Cc3nnn(C)c3C(COCC3CC3)C2)s1.O=C(O)C(F)(F)F` (stereo unspecified) | 38.48 |
| 13 | `Cc1cccc(CN2CCCC23CCNC3)n1` (stereo unspecified) | -21.46 |
| 14 | `CCNC(=O)c1c2c(N3CCN(C)CC3)ncnc2n2ccccc12` | -14.43 |
| 15 | `Cc1cccc(CN2CCc3[nH]nc(C(=O)N4CCOCC4)c3C2)n1` | -45.07 and -2.022 |
| 16 | `Cc1cccc(CC(=O)NS(=O)(=O)c2ccc(F)c(F)c2)c1` | -9.934 and -7.052 |
| 17 | `OC1CCN([C@@H]2CCN(c3nc(-c4ccccc4)no3)C[C@H]2O)CC1` | -18.46 |
| 18 | `Cc1cc(C(=O)N2CCN(Cc3ccsc3)CC2)c(C)n1C1CC1` | -17.39 |
| 19 | `CCc1nc2c(c(NC3CC3)n1)CCN(C(=O)Cc1nonc1C)CC2` | 5.184 |
| 20 | `CC(C)c1nnc2n1CCN(Cc1ccc3c(c1)OCO3)CC2` | -1.727 |
| 21 | `COc1nc(C)c(C(=O)NCc2cc(N3CCOCC3)ncn2)s1` | -22.59 |
| 22 | `CCc1nc2n(n1)CCCC2NC(=O)Nc1ccc(F)cc1C#N` (stereo unspecified) | -20.25 |
| 23 | `[H][C@@]12CCN(c3ncccn3)C[C@]1(C(=O)NCc1ccccn1)CCO2` | 16.89 |
| 24 | `Cc1cnn(C2CN(c3nc(-c4ccncc4)nc4c3CCC4)C2)c1` | 8.632 and 30.26 |
| 25 | `[H][C@@]12CCN(Cc3cc(C)on3)C[C@@]1([H])O[C@@H](c1nnc(C)[nH]1)C2` | -10.24 |
| 26 | `Cc1ncsc1C(=O)N1CCC(c2ncncc2-c2ccnc(N)c2)C1` (stereo unspecified) | 7.713 |
| 27 | `COc1ccc(C(=O)NCc2cc(N3CCOCC3)ncn2)o1` | -28.36 |
| 28 | `Cc1ccc(OC2(C(=O)O)CCN(C(=O)c3ccc(F)cc3)CC2)cn1` | 5.285 |
| 29 | `CCOc1ccc(C(=O)N2CCCC2c2cnn(C)c2)cn1` (stereo unspecified) | -30.11 |
| 30 | `CC(NC(=O)NCC1(c2ccc(Cl)cc2)CC1)c1nncn1C` (stereo unspecified) | -23.88 |
| 31 | `[H][C@@]12COC[C@]1([H])[C@H](NC(=O)C1CCC1)CN2Cc1cccc(C)n1` | -3.097 and -19.25 |
| 32 | `Cc1ccc(OCCC(=O)NC2CCc3nccn3C2)cc1` (stereo unspecified) | -15.23 and -0.744 |
| 33 | `O=C(O)C(F)(F)F.[H][C@@]12CCCO[C@]1([H])[C@H](N(C)Cc1cncnc1)CN2C(=O)C1CC1` | -17.56 |
| 34 | `CCn1cc(-c2n[nH]c(=O)n2-c2ccc(OC)c(OC)c2)c(C)n1` | -6.694 |
| 35 | `CCOc1ccccc1CNC1CCCN(Cc2noc(C)n2)C1` (stereo unspecified) | -23.81 |
| 36 | `Cn1cc(CC(=O)N2CCCC(c3cc(C(F)(F)F)[nH]n3)C2)cn1` (stereo unspecified) | -25.87 |
| 37 | `Cc1nnc2n1CCN(Cc1csc(-c3cnn(C)c3)n1)C2` | 1.212 |
| 38 | `CCc1cnc(C)nc1NCCSc1nnc(C)n1CC` | -26.01 and -6.58 |
| 39 | `COc1cc(CC(O)CC#N)c(OC)c2c1OCO2` (stereo unspecified) | -5.396 |
| 40 | `c1ccc2c(c1)CN(c1ncnc3c1CCNC3)CCO2` | 17.64 |
| 41 | `COCCN(C)C(=O)c1nc2c(s1)CCCN2c1ncccn1` | 10.01 and 12.71 |
| 42 | `CC(C)N1CCN(C(=O)c2csc3nc(-c4ccc(Cl)cc4)cn23)CC1` | -5.649 |
| 43 | `COc1ccccc1C(=O)N1CCN(C(=O)Cc2ccccn2)CC1` | -25.92 |
| 44 | `CC(C)(C)C(Cn1ccnc1)NC(=O)NCc1ccco1` (stereo unspecified) | 21.94 |
| 45 | `CN(C(=O)c1ccncc1Cl)c1ccccc1S(C)(=O)=O` | -4.152 |
| 46 | `COc1ccccc1C1(CNc2ccnc(C(=O)N(C)C)c2)CC1` | -36.92 |
| 47 | `[H][C@]12CC(COCC)C[C@]1([H])N(C(=O)c1ccc[nH]1)CCO2` (stereo partly specified) | 9.555 and 2.474 |
| 48 | `COCCNc1ncc(-c2cc(C)no2)c(-c2ccco2)n1` | 33.36 |
| 49 | `O=C(N1CCC2(CC1)[C@H](O)C[C@@H]2O)C1(c2ccccc2F)CC1` | -24.74 |
| 50 | `O=C(O)C(F)(F)F.[H][C@@]12COC[C@]1(COc1cccnc1)CN(C(=O)Cc1ccccc1F)C2` | 1.345 |
| 51 | `Cc1cc(C)n(CCNc2ncnc3c2NC(=O)CN3)n1` | 6.083 |
| 52 | `Cn1nccc1CCC(=O)N1CCOC(c2cnccn2)C1` (stereo unspecified) | 14.42 |
| 53 | `CCN(CC1CCOCC1)C(=O)Cn1ccccc1=O` | -0.5028 |
| 54 | `Cc1c(C(=O)OCC2CC(=O)N(c3ccccc3)C2)cnn1C(C)C` (stereo unspecified) | 13.39 and 10.58 |
| 55 | `CNC(=O)[C@@H](c1ccccc1F)N1CCC[C@H]1C(=O)NC1CC1.Cl` | -7.165 and 1.086 |
| 56 | `Nc1nc(CCC(=O)N2C[C@H](c3ccccc3)[C@@H](N)C2)cs1` | -6.848 |
| 57 | `Cc1cccc(C(C(=O)N2CC(c3ccncc3)C2)N(C)C)c1` (stereo unspecified) | -17.01 |
| 58 | `Cc1ccccc1CNc1nc(O)cc(C2CC(=O)N(C)C2)n1` (stereo unspecified) | -10.35 |
| 59 | `N#CCc1ccc(NC(=O)Cn2cc(I)cn2)cc1` | 30.81 |
| 60 | `Cc1ccc(S(=O)(=O)NCC2CNCCOC2)cc1Cl` (stereo unspecified) | 11.57 |
| 61 | `CCc1ccsc1C(=O)NC(C#N)CC` (stereo unspecified) | 16.02 |
| 62 | `Cc1cc2n(n1)CC(CNCc1ccccc1Cn1cccn1)CN2` (stereo unspecified) | 29.22 |
| 63 | `Cc1cccc(C(=O)NCCCN2CCc3ccccc3C2)c1C` | -22.7 |
| 64 | `N#Cc1ccccc1C(=O)N1C[C@@H](CN2CCCCC2)[C@@H](CO)C1` | -0.7352 and 17.31 |
| 65 | `Cc1cccc(CN2CCCn3c(nnc3CN3CCCC3=O)C2)n1.O=C(O)C(F)(F)F` | -16.22 |

For reference, 4 entries once more:

CCOc1ccc(C(=O)N2CCCC2c2cnn(C)c2)cn1 (stereo unspecified) gave -30.11%.
[H][C@@]12CCN(c3ncccn3)C[C@]1(C(=O)NCc1ccccn1)CCO2 gave 16.89%.
[H][C@@]12CCN(Cc3cc(C)on3)C[C@@]1([H])O[C@@H](c1nnc(C)[nH]1)C2 gave -10.24%.
Cc1cc(C(=O)N2CCN(Cc3ccsc3)CC2)c(C)n1C1CC1 gave -17.39%.

Measurements from “University of Dundee, Small-Polar-MMV Screening Library” (2021), ChEMBL document CHEMBL3988442.